According to paper PMC3688781:
Results are given in words; binding and its absence hold for the method and conditions named. Binding seen in cells or lysates may run through a third protein. Some entries that bind do so weakly or less than the wild type.

Chains of the proteins cited; added tags and fusions are not shown. Lines headed by an entry give the natural chain unless they say otherwise; changes in a name come on top. A line that says so, or that is headed by a name, gives the form on record, which may keep a tag or linker.
UniProt Q16665: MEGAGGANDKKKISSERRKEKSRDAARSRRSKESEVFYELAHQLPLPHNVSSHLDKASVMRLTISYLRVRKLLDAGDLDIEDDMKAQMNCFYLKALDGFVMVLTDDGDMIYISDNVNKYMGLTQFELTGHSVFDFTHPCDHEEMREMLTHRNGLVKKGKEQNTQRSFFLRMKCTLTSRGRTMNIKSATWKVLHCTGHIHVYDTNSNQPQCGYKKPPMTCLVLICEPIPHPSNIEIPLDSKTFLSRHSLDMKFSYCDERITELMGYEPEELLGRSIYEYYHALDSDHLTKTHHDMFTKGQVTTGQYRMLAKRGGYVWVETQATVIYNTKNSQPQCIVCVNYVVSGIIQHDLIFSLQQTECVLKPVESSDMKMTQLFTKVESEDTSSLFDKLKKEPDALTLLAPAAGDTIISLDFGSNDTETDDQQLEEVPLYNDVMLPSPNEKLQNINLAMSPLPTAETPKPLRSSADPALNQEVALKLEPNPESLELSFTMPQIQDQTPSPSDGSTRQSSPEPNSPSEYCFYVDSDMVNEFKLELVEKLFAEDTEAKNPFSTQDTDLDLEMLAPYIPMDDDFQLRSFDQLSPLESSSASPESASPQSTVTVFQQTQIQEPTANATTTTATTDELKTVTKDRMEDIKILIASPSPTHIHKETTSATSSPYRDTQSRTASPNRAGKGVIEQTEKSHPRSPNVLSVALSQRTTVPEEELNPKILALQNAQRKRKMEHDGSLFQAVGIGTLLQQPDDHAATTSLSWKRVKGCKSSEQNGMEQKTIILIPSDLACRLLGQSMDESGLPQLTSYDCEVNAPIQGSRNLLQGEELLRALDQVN
O2-stable mutant of HIF-1α (P402/564A) (Q16665, form named): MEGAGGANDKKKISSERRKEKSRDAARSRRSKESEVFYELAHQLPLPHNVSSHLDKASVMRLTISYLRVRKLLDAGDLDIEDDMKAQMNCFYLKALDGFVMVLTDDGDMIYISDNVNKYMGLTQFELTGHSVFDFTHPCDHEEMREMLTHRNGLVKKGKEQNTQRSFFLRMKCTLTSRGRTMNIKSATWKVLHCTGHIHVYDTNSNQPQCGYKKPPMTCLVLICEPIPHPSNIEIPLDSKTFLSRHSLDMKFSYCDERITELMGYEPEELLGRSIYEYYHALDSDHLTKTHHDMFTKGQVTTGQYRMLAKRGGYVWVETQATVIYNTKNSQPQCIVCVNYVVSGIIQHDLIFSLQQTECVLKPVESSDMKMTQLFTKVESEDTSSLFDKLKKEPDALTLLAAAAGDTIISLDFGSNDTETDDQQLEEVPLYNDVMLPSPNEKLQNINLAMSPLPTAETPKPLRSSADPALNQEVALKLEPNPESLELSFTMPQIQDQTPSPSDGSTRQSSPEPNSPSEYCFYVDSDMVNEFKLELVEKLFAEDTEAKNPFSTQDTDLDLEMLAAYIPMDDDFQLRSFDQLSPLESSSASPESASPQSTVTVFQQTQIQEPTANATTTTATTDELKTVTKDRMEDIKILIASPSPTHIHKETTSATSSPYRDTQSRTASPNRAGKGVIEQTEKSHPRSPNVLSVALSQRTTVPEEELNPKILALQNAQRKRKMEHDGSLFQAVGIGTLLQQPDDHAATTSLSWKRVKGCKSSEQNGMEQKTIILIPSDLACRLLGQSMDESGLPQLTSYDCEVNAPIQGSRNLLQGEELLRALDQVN
UniProt Q99814: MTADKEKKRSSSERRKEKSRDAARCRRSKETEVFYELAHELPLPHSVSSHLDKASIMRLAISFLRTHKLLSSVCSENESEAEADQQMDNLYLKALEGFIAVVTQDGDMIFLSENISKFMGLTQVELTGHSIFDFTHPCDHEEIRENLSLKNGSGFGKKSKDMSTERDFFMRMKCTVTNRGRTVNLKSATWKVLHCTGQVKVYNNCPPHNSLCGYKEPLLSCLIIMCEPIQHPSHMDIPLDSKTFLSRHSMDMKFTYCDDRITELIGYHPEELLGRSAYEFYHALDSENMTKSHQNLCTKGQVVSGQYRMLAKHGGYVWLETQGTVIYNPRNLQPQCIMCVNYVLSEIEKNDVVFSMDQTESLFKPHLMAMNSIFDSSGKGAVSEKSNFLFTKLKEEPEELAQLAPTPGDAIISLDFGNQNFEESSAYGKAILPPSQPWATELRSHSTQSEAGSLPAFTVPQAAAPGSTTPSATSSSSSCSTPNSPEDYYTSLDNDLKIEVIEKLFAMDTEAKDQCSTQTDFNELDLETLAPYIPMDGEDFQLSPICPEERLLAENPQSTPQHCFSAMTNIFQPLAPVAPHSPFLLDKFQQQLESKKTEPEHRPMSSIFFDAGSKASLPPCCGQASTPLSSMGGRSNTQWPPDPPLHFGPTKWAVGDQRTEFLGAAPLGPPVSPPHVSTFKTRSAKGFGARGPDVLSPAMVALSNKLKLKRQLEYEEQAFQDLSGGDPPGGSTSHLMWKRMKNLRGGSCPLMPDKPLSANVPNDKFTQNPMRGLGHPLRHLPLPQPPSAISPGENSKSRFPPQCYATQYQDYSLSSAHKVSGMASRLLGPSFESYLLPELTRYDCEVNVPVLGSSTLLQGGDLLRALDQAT
O2-stable mutant of HIF-2α (P405/531A) (Q99814, form named): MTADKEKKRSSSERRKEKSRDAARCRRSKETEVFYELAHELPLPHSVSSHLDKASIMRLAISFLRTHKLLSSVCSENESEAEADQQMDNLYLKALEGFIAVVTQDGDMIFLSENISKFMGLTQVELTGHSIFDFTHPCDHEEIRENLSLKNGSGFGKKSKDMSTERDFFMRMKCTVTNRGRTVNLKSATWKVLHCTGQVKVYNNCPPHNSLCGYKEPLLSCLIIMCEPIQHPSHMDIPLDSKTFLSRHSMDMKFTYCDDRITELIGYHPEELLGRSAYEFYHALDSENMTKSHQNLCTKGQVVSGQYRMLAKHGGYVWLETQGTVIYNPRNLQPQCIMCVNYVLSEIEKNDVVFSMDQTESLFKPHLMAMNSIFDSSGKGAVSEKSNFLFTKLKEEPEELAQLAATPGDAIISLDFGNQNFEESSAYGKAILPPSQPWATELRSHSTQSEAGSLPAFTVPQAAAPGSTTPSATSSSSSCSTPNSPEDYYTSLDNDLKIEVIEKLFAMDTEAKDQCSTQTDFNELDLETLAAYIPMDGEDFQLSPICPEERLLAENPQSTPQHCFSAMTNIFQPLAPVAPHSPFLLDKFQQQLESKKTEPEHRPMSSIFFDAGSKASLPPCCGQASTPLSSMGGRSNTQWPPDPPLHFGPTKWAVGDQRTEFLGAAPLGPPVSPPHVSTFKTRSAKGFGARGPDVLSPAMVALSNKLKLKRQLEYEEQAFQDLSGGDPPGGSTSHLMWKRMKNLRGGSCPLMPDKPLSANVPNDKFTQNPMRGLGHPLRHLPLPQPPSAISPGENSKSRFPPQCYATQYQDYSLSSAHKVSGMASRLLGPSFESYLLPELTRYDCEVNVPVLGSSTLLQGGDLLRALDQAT

What was measured:
Elk1 [1] = biological target: T1, Elk1 (UniProt P19419); experiment: co-IP; HEK293 cells under normoxia and hypoxia; IP-western blot of HIF-1α with Elk1
T1 sequence: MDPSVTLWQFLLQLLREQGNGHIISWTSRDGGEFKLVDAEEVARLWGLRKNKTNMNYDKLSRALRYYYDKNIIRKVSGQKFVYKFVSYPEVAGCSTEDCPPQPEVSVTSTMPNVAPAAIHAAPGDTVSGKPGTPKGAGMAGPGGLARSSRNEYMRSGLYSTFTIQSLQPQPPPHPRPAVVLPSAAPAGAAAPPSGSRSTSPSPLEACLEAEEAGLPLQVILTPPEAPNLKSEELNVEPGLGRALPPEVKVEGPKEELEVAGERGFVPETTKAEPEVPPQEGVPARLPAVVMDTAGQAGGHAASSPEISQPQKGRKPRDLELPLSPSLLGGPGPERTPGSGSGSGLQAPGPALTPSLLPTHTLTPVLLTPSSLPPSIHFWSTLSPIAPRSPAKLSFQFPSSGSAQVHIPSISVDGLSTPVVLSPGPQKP

Elk1 [2] = biological target: T1, Elk1; experiment: co-IP; HEK293 or WiDr cells co-transfected with S-tagged HIF and FLAG-tagged ETS factor; lysis in 20 mM Tris-HCl pH 7.5, 137 mM NaCl, 0.5% NP-40, 0.5 mM DTT; IP with FLAG M2 agarose 1 hr at 4°C, elution with 3×FLAG peptide; western blot with anti-FLAG and anti-S-tag

| Substance | binding (Elk1 [1]) | binding (Elk1 [2]) |
| --- | --- | --- |
| HIF-1α (from UniProt Q16665 1-826) | binds | – |
| O2-stable mutant of HIF-1α (P402/564A) (from UniProt Q16665 1-826) | – | binds |
| O2-stable mutant of HIF-2α (P405/531A) (from UniProt Q99814 1-870) | – | no binding |
